Assay results reported in paper PMC3447951.

T1: HYM1 (two-hybrid fusion) (N. crassa) (UniProt Q1K4S9)
T1 sequence: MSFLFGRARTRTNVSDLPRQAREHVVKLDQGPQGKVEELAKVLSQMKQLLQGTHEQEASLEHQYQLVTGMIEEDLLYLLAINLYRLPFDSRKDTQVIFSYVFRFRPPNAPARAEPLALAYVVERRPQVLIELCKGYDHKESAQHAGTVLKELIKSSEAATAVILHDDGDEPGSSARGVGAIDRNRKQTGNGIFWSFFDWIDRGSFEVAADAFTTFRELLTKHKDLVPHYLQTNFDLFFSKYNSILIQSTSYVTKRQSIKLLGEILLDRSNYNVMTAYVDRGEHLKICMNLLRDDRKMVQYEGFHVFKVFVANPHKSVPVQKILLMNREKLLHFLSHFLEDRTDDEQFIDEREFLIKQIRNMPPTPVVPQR


What was measured:
[1] = target: T1, HYM1 (two-hybrid fusion) (N. crassa); assay: two-hybrid; Matchmaker Two-Hybrid system 3 (Clontech); pGBKT7 (GAL4 DNA-binding domain) and pGADT7 (GAL4 activation domain) fusions co-expressed in S. cerevisiae AH109; growth on SD medium lacking adenine, histidine, leucine and tryptophane
[2] = target: NRC1 (two-hybrid fusion) (N. crassa); assay: as above

binding [1] | binding [2] | Molecule
no binding |  | MEK2 (two-hybrid fusion) (N. crassa) (enzyme)
no binding |  | NRC1 (two-hybrid fusion) (N. crassa) (enzyme)

More lines, now with the values behind:

Molecule | binding [1] | binding [2]
PAK kinase CLA4/NCU00406 (two-hybrid fusion) (N. crassa) (enzyme) | no binding | 
PAK kinase STE20/NCU03894 (two-hybrid fusion) (enzyme, UniProt Q7RZD3 1-954) MDGQLSLLSPTSSSSTSHSRKRLTKKQRPPSANHRTSSSFNVESLRIDAQSLDSKRSASSLRQGPNCNQSPSLARTVSVPVSVPSNAPAHTKASDLSLPRSHTTRSQSANRPYNPTQTIPTNRFILSPASSSQPQTQSPPYPSAVASTTVTSSRNKDTSKQYDPLDSCIGSFDQNKLSTDELIGAPFDGNAILSRIEATKLSAAPAPTSTTTIAHSNNISPRRVAPPPPPPPPALSRSNTDSKAARSSKPSKSPKSTISNKTMGASSFRHSASFSSAEQLPPSEKPSKSESSSSSNKRHSGDGKESRVPGMLRKKSGFSGFMNSLVGSPKKPLISAPENPVHVTHVGYDSNTGQFTGLPKEWQRLISESGITEKDRREHPQILVDVLTFYKETTEKPQEDQQLEKFHDARATDFRSPPVTGTAPLVLQTGVGYAHGPMSPMISPPASPRFPQVGHEGSFENPRAPPPVPKGPGPLPAKDINLIPSRPAPKPPAISTRPLVPPASLPAKDSGIGMPPPGDEAPMPYLPPKDNVQHMYQEEHRNRSRSNSRTNGAAPFSPVQASPLHPIATANQTAAYQQQLLQHQQEQAMAQAQAAMSGQLSRAASKRQQPTPPTSQHQHPRQPDINGAPRMPQTQGAAPQASARPRHRPRQSNAIDVVASLKRICSDGDPREIYRGFTKIGQGASGGVYTGHERGSNRLVAIKQMNLEQQPKKDLIINEILVMKESSHPNIVNFIDSYLCAGELWVVMEYMEGGSLTDVVTFNIMTEGQIASVCRETLRGLQHLHSKGVIHRDIKSDNILLSMEGNIKLTDFGFCATINEAQSKRTTMVGTPYWMAPEVVTRKEYGRKVDIWSLGIMAIEMIEGEPPYLTESPLRALWLIATNGTPHIKDEQSLSPVFRDFLYFALKVDPEKRASAHDLLRHDFMNKCVDLSTLAPLVRAAREARAQEKARKGQ |  | binds

No constants are given. Whether binding was seen depends on the method and setting. For some of these results: Binding can be weak; no strength is given. Sequences can lack the tags named with a protein.
